For test [1], the target named is T1, PsaD (Chlamydomonas reinhardtii (endogenous in strain CC-137)) (UniProt Q39615).
T1 sequence: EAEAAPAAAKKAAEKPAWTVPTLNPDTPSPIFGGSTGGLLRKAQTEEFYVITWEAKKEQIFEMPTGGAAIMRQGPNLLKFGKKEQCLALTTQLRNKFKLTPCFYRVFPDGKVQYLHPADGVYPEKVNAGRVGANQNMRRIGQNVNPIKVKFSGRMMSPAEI
As to the kind of experiment: cryo-EM structure; single-particle cryo-EM of the PSI-LHCI-LHCII supercomplex purified from state 2 cells; 3.42 Å overall; 10 mM Hepes-KOH pH 7.5, 50 mM NaCl, 1 mM NaN3, 10 mM NaF, 0.01% α-DDM; both purified.

The target in test [2] is PsaL (Chlamydomonas reinhardtii (endogenous in strain CC-137)). The test is described as above.

These are yes or no findings as the source states them, for the method shown. A result given as binding can be weak or reduced; the word gives no strength.

PsaO: the binding entry in test [1] is given as “binds”.

B1: PsaH (natural protein, UniProt P13352 31-130, looked up)
chain: KYGENSRYFDLQDMENTTGSWDMYGVDEKKRYPDNQAKFFTQATDIISRRESLRALVALSGIAAIVTYGLKGAKDADLPITKGPQTTGENGKGGSVRSRL
notes: PSI core subunit PsaH of C. reinhardtii; also called Cr-PsaH; source: endogenous, C. reinhardtii CC-137 cells in state 2; thylakoid membranes solubilised with α-DDM, PSI-LHCI-LHCII purified (sucrose density gradient, gel filtration)
Regarding B1, the binding result in test [2] was “binds”.

The values are drawn from publication PMC7889890, “Structure of photosystem I-LHCI-LHCII from the green alga Chlamydomonas reinhardtii in State 2” (Nature Communications, 2021).
